Data as given in patent US20110263822A1, “COMPOSITION FOR THE PROPHYLAXIS AND TREATMENT OF HBV INFECTIONS AND HBV-MEDIATED DISEASES” (Rhein Biotech Gesellschaft Fur Neue Biotechnologische …, priority 2003, published 2011).
Not every detail of the peptide structures is certain; ends, links or a residue may be inferred. Ends that are not written are not given here.

Chains of the proteins cited; added tags and fusions are not shown. Lines headed by an entry give the natural chain unless they say otherwise; changes in a name come on top.
UniProt P01901: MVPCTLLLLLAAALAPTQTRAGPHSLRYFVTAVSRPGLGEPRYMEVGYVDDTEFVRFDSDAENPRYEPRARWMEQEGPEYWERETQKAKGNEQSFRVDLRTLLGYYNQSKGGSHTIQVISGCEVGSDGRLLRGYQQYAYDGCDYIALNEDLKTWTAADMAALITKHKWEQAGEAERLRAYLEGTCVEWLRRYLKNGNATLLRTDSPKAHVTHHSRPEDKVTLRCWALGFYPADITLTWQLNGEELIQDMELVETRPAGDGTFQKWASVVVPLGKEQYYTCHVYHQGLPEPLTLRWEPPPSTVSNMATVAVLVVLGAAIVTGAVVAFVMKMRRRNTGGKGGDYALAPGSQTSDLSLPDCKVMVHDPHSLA

Molecular target: MHC class I molecules K^b (Mus musculus, UniProt P01901)
Format: binding

IVSPFIPL [IVSPFIPL]
binding affinity for K^b (in words): higher binding affinity for K^b than the HBsAgayw variant
